## Library screen at single concentrations

T. brucei: 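Whole-parasite assay of Trypanosoma brucei over 72 hours; the read-out is not stated. Compounds at 30 µM. Direction is inferred from retests: higher values go with stronger inhibition. Values scatter widely below zero; nearly all retest evidence comes from the higher of the two concentrations used. About 64,000 compounds were tested under these conditions; 1.5% (about 940) showed 50% or more at least once.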
Toxoplasma: 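Assay of Toxoplasma gondii numbers, read through their beta-galactosidase reporter with a colour substrate. Compounds at 10 µM. The record gives no direction; the compounds picked for IC50 retests had high values, so higher reads as fewer parasites. Of about 67,000 compounds tested this way, about 260 (0.38%) reached 50% or more in at least one test.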

Values are the deposited “Percent Effect”, in %.
How 0% and 100% were set is not recorded. Most values in the screen are low, and negative values occur.
This is an unselected part of the compounds tested.
A dash means the value is not listed here; it may have been measured.

SMILES,T. brucei,Toxoplasma
O=C(O)C(=O)O.c1cncc(-c2noc(C3CN(Cc4cccs4)C3)n2)c1,5.547,-62.93
Cc1ccc(-c2nnc(CN3CC[C@H](CO)[C@@H](O)C3)o2)n1C,3.24,1.265
O=C(O)C(F)(F)F.O=C(O)C(F)(F)F.O=C(c1ccccn1)N1Cc2nccn2CC(CN2CCOCC2)C1 (centres undefined),1.825,-18.31
CCCc1c(C(=O)NC2CCCC2)nnn1-c1ccc(OC)cc1,-4.319,-4.428
CCCn1nc(C(=O)N2CCCC2c2noc(C)n2)ccc1=O (centres undefined),-42.97,0.7901
CC(C)COCC(NC(=O)c1cnccn1)c1ccco1 (centres undefined),-4.337,-9.163
Cc1ccc(-c2cc(C(=O)O)sn2)cc1,-12.53,-1.318
OCCNc1cc(-c2ccncc2)ncn1,-21,1.633
O=C(O)c1cc(-c2ccccc2)ns1,-4.094,1.797
[H][C@@]12CN(C(=O)C3CCOC3)C[C@]1([H])C(=O)N(Cc1cccc(F)c1)C2 (some centres undefined),2.481,-13.27
COc1cc(CNCC2CNc3ccnn3C2)ccn1 (centres undefined),-15.29,-20.26
O=C(NCC1CCC2(CC1)OCCO2)c1ccncc1F,-10.03,-4.253
CCn1ncc(S(=O)(=O)NC(C)c2cc(OC)ccc2OC)c1C (centres undefined),-22.74,11.02
O=C(NCC1(O)CCOCC1)c1ccn(-c2ccccc2F)n1,-26.85,10.38
NC(=O)Cn1cc(NC(=O)NCCN2CCc3ccccc3C2)cn1,-,5.583
[H][C@@]12C[C@H](C(=O)NCc3cccnc3)[C@@]([H])(CN(Cc3ccc(C)o3)C1)O2,-29.98,2.287
O=C(CCC(=O)N1CCc2ccccc2C1)c1cccs1,5.978,7.371
Cc1ccc2nc(CN(C)Cc3[nH]nc4c3CCC4)[nH]c2c1C,-34.31,7.366
O=C(NCc1ccncc1)c1ccc(Cl)cc1F,-13.78,-1.347
c1ccc(-c2cnc(CN3CCn4c(nnc4C4CC4)C3)o2)cc1,-19.19,-8.327
CC(C)CCC(=O)N1CCC(c2nnc(CN(C)CCO)n2C)CC1,4.719,7.557
Cc1noc2ncc(C(=O)NCC3CCCOC3)cc12 (centres undefined),-,4.923
CN(c1nc(Cn2cnccc2=O)cs1)C1CC1,-5.72,-4.37
O=C(CCN1CCOCC1)NC1CCCN(CC2CCCCC2)C1 (centres undefined),26.91,-3.461
CC(C)N1C(=O)CC(NC(=O)c2cc(Cl)sc2Cl)C1=O (centres undefined),4.09,9.812
CC(=O)c1c(C)nn(S(=O)(=O)c2ccc(F)cc2)c1C,-17.2,3.41
Cc1ccsc1C(Cc1ccccc1)NC(=O)CNC(=O)C1CC1 (centres undefined),5.826,-7.343
Cc1cc2c(=O)n3c(nc2s1)CCN(C(=O)c1ccnn1C(C)C)CC3,12.16,1.393
COc1ccccc1OCC(=O)NS(=O)(=O)c1ccccc1Br,5.994,-2.002
CC(CO)NCc1csc2c1CCCC2 (centres undefined),13.62,7.769
Cc1cc(N2CCC(O)(CN(C)C(=O)CCN)C2)c2cnccc2n1 (centres undefined),1.337,-3.82
CN(C)c1ccc(CCCNC(=O)Nc2ccc(C#N)cc2)cc1,48.49,-8.425
CSc1nc2ccsc2c(=O)n1CC(=O)N(C)c1ccccc1,-6.217,2.923
Cn1c(NCC(O)c2ccc(F)cc2)c(C#N)c(=O)n(C)c1=O (centres undefined),-,15.26
Cc1cccc(N2CCN(CC(=O)N3CCCC(N(C)C)CC3)CC2)c1 (centres undefined),-48.03,-4.777
CCCc1cnc(C)nc1N1CCC(F)(F)CC1,-23.15,-7.08
COc1cccc(CNC(=O)c2cccnc2SC(C)C)c1,-17.96,-36.05
CS(=O)(=O)CCC(=O)NC(c1ccc(F)cc1)C(F)(F)F (centres undefined),5.561,11.25
O=C(O)C(F)(F)F.O=C(O)C(F)(F)F.[H][C@@]12C[C@@H](Oc3cccc(F)c3)CN1CCN(C(=O)c1ccc(C)nc1)C2,9.09,3.695
O=C(c1ccc2cc[nH]c2c1)N1CCCN(Cc2cscn2)CC1,-,-3.105
Cn1ccc(CN2CCC(OCCc3ccccc3)CC2)cc1=O,8.876,-0.1059
Cc1cnn(CCNC(C)C(=O)Nc2ccc(Cl)cn2)c1 (centres undefined),-23.21,-12.3
Cc1ccc(NC2CCN(C(=O)COc3cccnc3)CC2)nn1,3.213,0.8436
Cc1nc(C2CCCN2CC(=O)N2CCc3ccccc32)no1 (centres undefined),-37.68,-28.11
CCN1CCCC1CN(CCN(C)C)S(=O)(=O)c1cccc(C#N)c1 (centres undefined),-49.16,-0.1095
CCOC1CCN(C(=O)NCCc2ccn(-c3ccccc3)n2)CC1,-,-6.838
CN1CC(C(=O)NCCc2ccc(Br)cc2F)CC1=O (centres undefined),-29.35,-8.258
Cc1ccc(CN2CCOC3(COCCN(C(C)C)C3)C2)o1.O=C(O)C(F)(F)F.O=C(O)C(F)(F)F (centres undefined),-24.31,-0.1012
Cc1ccc(NCCCNC(=O)NCc2c(C)cc(C)[nH]c2=O)nc1,-50.66,4.765
Cn1cc(Br)c(C(=O)NCCCn2cc(Br)cn2)n1,-,21.78
c1cc(-c2ccc(CN3CCCC4(CCNC4)C3)s2)[nH]n1 (centres undefined),-92.83,-9.746
CN1CCN(Cc2cccnc2)C2(CCN(C3CCOCC3)C2)C1=O.O=C(O)C(F)(F)F.O=C(O)C(F)(F)F.O=C(O)C(F)(F)F (centres undefined),-36.04,2.11
Cc1cc(C)nc(Nc2cc(C3CCCN(C)C3)nc(C)n2)n1.O=CO (centres undefined),26.28,1.602
O=C(CN1CC(n2cccn2)C1)NCCCc1ccccc1,23.74,2.369
CCS(=O)(=O)NCC1OCCc2cn(CCOC)nc21 (centres undefined),0.8246,6.411
COCCNC(=O)CCC1CCN(Cc2cccc(SC)c2)CC1,-15.88,-9.944
CCCN(Cc1cccnc1)C(=O)C1CCN(Cc2ccco2)CC1,-4.087,18.96
[H][C@@]12CCCO[C@]1([H])[C@H](N(CC)CC)CN2S(=O)(=O)c1cn(C)cn1,4.56,-12.14
[H][C@@]12C[C@H](C(=O)NC(C)C)[C@@]([H])(CN(C(=O)NCCc3ccccc3)C1)O2,-5.055,-2.438
COc1ccc(Cl)cc1NCC(=O)NCCNc1cnccn1,-9.917,7.065
[H][C@]12CC[C@]([H])(CN(Cc3ccncc3)C1)N(C(=O)N1CCCC1)C2,-98.59,-59.28
O=C(O)C(F)(F)F.[H][C@]12CCN(C(=O)c3ccoc3)[C@@]1([H])CC[C@H](COCCN1CCCC1)O2,32.59,-11.35
[H][C@@]12COC[C@]1(c1nnc(C3CC3)o1)CN(C(=O)N(C)C)C2,-43.64,2.351
CN(C)CCN(C)C[C@@H]1CN(Cc2cccc(O)c2)C[C@@H]1CO,-,-28.66
Cc1cc(Cn2cncc(Br)c2=O)on1,-12.61,6.159

Once more, the final 8:

SMILES,T. brucei,Toxoplasma
[H][C@@]12CCCO[C@]1([H])[C@H](N(CC)CC)CN2S(=O)(=O)c1cn(C)cn1,4.56,-12.14
[H][C@@]12C[C@H](C(=O)NC(C)C)[C@@]([H])(CN(C(=O)NCCc3ccccc3)C1)O2,-5.055,-2.438
COc1ccc(Cl)cc1NCC(=O)NCCNc1cnccn1,-9.917,7.065
[H][C@]12CC[C@]([H])(CN(Cc3ccncc3)C1)N(C(=O)N1CCCC1)C2,-98.59,-59.28
O=C(O)C(F)(F)F.[H][C@]12CCN(C(=O)c3ccoc3)[C@@]1([H])CC[C@H](COCCN1CCCC1)O2,32.59,-11.35
[H][C@@]12COC[C@]1(c1nnc(C3CC3)o1)CN(C(=O)N(C)C)C2,-43.64,2.351
CN(C)CCN(C)C[C@@H]1CN(Cc2cccc(O)c2)C[C@@H]1CO,-,-28.66
Cc1cc(Cn2cncc(Br)c2=O)on1,-12.61,6.159

Data taken from ChEMBL document CHEMBL3988442, “University of Dundee, Small-Polar-MMV Screening Library” (2021).